In experiment [1] the target is T1, NGA3 (Arabidopsis thaliana) (UniProt Q9MAN1).
T1 sequence: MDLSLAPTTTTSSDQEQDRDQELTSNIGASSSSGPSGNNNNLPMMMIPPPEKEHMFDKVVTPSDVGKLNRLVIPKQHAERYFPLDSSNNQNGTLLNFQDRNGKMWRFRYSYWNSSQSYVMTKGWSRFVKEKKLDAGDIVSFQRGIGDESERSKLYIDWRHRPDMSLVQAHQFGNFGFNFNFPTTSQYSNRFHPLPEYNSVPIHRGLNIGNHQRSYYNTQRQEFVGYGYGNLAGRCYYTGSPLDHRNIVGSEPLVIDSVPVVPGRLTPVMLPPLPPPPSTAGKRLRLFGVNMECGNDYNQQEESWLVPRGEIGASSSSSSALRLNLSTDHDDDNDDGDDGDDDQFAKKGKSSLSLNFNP
Kind of experiment: two-hybrid.

Experiment [2] deals with T2, ARR15 (Arabidopsis thaliana) (UniProt Q7G8V2).
T2 sequence: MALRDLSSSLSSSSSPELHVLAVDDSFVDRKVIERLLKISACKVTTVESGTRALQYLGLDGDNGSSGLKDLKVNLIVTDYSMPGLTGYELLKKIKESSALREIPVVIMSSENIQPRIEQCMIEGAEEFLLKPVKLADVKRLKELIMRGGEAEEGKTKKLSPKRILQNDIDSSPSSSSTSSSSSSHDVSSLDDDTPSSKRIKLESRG
In words: two-hybrid.

Results are given in words; binding and its absence hold for the method and conditions named. Some binding calls cover weakened binding; strength is not graded here.

B1: CRC (protein, UniProt Q8L925 1-181)
chain: MNLEEKPTMTASRASPQAEHLYYVRCSICNTILAVGIPLKRMLDTVTVKCGHCGNLSFLTTTPPLQGHVSLTLQMQSFGGSDYKKGSSSSSSSSTSSDQPPSPSPPFVVKPPEKKQRLPSAYNRFMRDEIQRIKSANPEIPHREAFSAAAKNWAKYIPNSPTSITSGGHNMIHGLGFGEKK
Take B1: the binding entry in experiment [1] is “binds”.

B2: PAN (protein, UniProt Q9SX27 1-452)
chain: MQSSFKTVPFTPDFYSQSSYFFRGDSCLEEFHQPVNGFHHEEAIDLSPNVTIASANLHYTTFDTVMDCGGGGGGGLRERLEGGEEECLDTGQLVYQKGTRLVGGGVGEVNSSWCDSVSAMADNSQHTDTSTDIDTDDKTQLNGGHQGMLLATNCSDQSNVKSSDQRTLRRLAQNREAARKSRLRKKAYVQQLENSRIRLAQLEEELKRARQQGSLVERGVSADHTHLAAGNGVFSFELEYTRWKEEHQRMINDLRSGVNSQLGDNDLRVLVDAVMSHYDEIFRLKGIGTKVDVFHMLSGMWKTPAERFFMWLGGFRSSELLKILGNHVDPLTDQQLIGICNLQQSSQQAEDALSQGMEALQQSLLETLSSASMGPNSSANVADYMGHMAMAMGKLGTLENFLRQADLLRQQTLQQLHRILTTRQAARAFLVIHDYISRLRALSSLWLARPRD
Take B2: the binding result in experiment [2] is “binds”.

For the origin of these results see doi:10.1101/500736.
